Screening data, single-dose tests

Data taken from ChEMBL document CHEMBL3988442, “University of Dundee, Small-Polar-MMV Screening Library” (2021).

A: 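Whole-parasite assay of Trypanosoma brucei over 72 hours; the read-out is not stated. Compounds at 30 µM. Direction is inferred from retests: higher values go with stronger inhibition. Values scatter widely below zero; nearly all retest evidence comes from the higher of the two concentrations used. Of about 64,000 compounds tested this way, about 940 (1.5%) reached 50% or more in at least one test.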
B: 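Cell assay of Leishmania donovani living inside macrophages; the read-out is not stated. Concentration: 30 µM. Direction is inferred from retests: higher values go with stronger inhibition. Size under these conditions: about 69,000 compounds, about 1,000 of them at 50% or above in at least one test.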
C: 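Assay of Toxoplasma gondii numbers, read through their beta-galactosidase reporter with a colour substrate. Compounds at 10 µM. Higher reads as fewer parasites (inferred from which compounds were picked for retests). About 67,000 compounds were tested under these conditions; 0.38% (about 260) showed 50% or more at least once.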

Each number is a percent effect as filed.
The record does not define 0% and 100%; most values in the screen are far below 50% and negative numbers occur (in some assays of this library far below -100).
Compounds were drawn at random from those tested, without regard to their results.

SMILES: O=c1ncn(-c2cccc(F)c2)c2ncccc12
A: -8.96
B: 5.581
C: -21.41

SMILES: CCn1nc(C)c2ccn(CC(=O)NCCCOC)c(=O)c21
A: 9.008
B: 6.815
C: 25.88

SMILES: O=C([C@H]1CCCO1)N1CCc2ncc(CN3CCOCC3)n2CC1
A: -20.72
B: 32.4
C: -19.99

SMILES: Cc1cccnc1CN1CCN(C(=O)c2ccn(C(C)(C)C)c2)CC1
A: -37.32
B: -8.321

SMILES: CCSc1ccc(C(=O)N2CCC3(CCC(=O)N(C)C3)CC2)s1
A: 1.231
B: 16.98
C: -9.679

SMILES: CCn1[nH]c(C)c2c(C(F)(F)F)cc(=O)nc1-2
A: -35.04
B: -2.638
C: 0.1763

SMILES: COCCN(CCC#N)S(=O)(=O)c1ccc(F)cc1Cl
A: -27.56
B: -7.04
C: -25.92

SMILES: O=C(c1cc(COc2ccc3c(c2)OCO3)[nH]n1)N1CCCC1
A: -24.36
B: -5.399
C: 37.52

SMILES: COc1nn(C)cc1C(=O)N1CCC(c2nnc(C3CC3)o2)CC1
A: 33.94
B: 11.66
C: -2.882

SMILES: Cc1ccc(NC2CCN(C(=O)CC3CCCO3)CC2)nn1 (configuration not stated)
A: -9.027
B: 6.757
C: 1.666

SMILES: CCc1ncc(CNCc2cccnc2N(C)C)cn1
A: -29.44
B: 36.44

SMILES: COc1ccc(-c2noc([C@@H](C)NC(=O)NC(C)(C)C)c2C(=O)O)cc1
A: -4.112
B: 10.87
C: -5.442

SMILES: COCCOc1ccccc1C(=O)NCCN(C)C(C)C
A: 1.935
B: 27.01
C: -2.215

SMILES: Cc1ccc(C2CSCCN2C(=O)c2ccoc2C)o1 (configuration not stated)
A: -15.33
B: 9.976
C: 6.169

SMILES: O=C(NCc1ccc(Cl)s1)NCc1nnc2n1CCCCC2
A: 17.97
B: 15.51
C: -0.9754

SMILES: CNC(=O)c1cnc(/C=C/c2cc(OC)c(OC)c(OC)c2)s1
A: 16.27
B: -18.48
C: 0.7482

SMILES: CC(C)NC(=O)N1CCc2nc(C(=O)NCc3ccccc3)sc2CC1
B: 22.11
C: -0.5917

SMILES: COC(=O)C1CCCN1CC(=O)NCc1ccc(OCC(N)=O)cc1 (configuration not stated)
A: -6.958
B: 13.46
C: 3.427

SMILES: N#Cc1cn[nH]c1NCc1cc(Cl)cc(Cl)c1O
A: -37.14
B: 0.9157
C: 3.315

SMILES: CC(C)Sc1nnnn1C1CCCC1
A: -16.78
B: 41.83

SMILES: CO[C@H]1CN(C(=O)OC(C)(C)C)CC1NCc1ccco1 (some centres not stated)
A: -32.94
B: 8.046
C: -6.618

SMILES: COCC1CN(Cc2ccc(F)cc2)Cc2nnn(CC3CC3)c21.O=C(O)C(F)(F)F (configuration not stated)
A: -43.16
B: -17.9
C: 9.464

SMILES: Cl.c1cnc(N2CCCC(NCc3cccc4c3OCCO4)C2)nc1 (configuration not stated)
A: 1.275
B: 30.74
C: 3.504

SMILES: C1CCN(c2nc(N3CCOCC3)nc3[nH]nnc23)CC1
A: 0.2853
B: -3.817
C: -61.96

SMILES: Cc1c[nH]c(C2COCCN2C(=O)c2n[nH]c(=O)c3ccccc23)n1 (configuration not stated)
A: -18.09
B: 23.23
C: 9.279

SMILES: Cc1ncsc1CCC(=O)N1CCN(CCn2cncn2)CC1
A: -13.1
B: 12.7
C: -0.9438

SMILES: CCN(CC)C(=O)CN(C)C(=O)c1ccc(-c2ccsc2)nc1C
A: -62.98
B: 8.051
C: 15.29

SMILES: CCOCCN1CCN(CCC(=O)N2CCCCC2)CC1C (configuration not stated)
A: 4.985
B: 17.56
C: -10

SMILES: CS(=O)(=O)NCc1cncc2c1CCN(CC1CCOC1)C2.Cl.Cl (configuration not stated)
A: -21.12
B: 25.67
C: 1.562

SMILES: CN(Cc1ccc2c(c1)OCO2)C(=O)c1ccc(=O)n(C)c1
A: -33.31
B: 2.968
C: 2.308

SMILES: O=C1OCCN1CCSc1nnnn1C1CCOCC1
B: 16.33
C: -2.665

SMILES: Cn1cccc1CNC(=O)CCCc1nnc2ccccn12
A: 8.927
B: -1.663
C: 11

SMILES: CC(=O)N1CCC(NC2(Cc3cc(CN(C)C)on3)COC2)CC1
A: -4.715
B: -9.63
C: 3.202

SMILES: COCC1CN(Cc2ccsc2)Cc2nn(C)cc21.O=C(O)C(F)(F)F (configuration not stated)
A: -44.33
B: -21.19
C: -3.921

Some entries from above, unchanged:

SMILES,A,B,C
COC(=O)C1CCCN1CC(=O)NCc1ccc(OCC(N)=O)cc1 (configuration not stated),-6.958,13.46,3.427
CCn1[nH]c(C)c2c(C(F)(F)F)cc(=O)nc1-2,-35.04,-2.638,0.1763
O=C(c1cc(COc2ccc3c(c2)OCO3)[nH]n1)N1CCCC1,-24.36,-5.399,37.52
CCN(CC)C(=O)CN(C)C(=O)c1ccc(-c2ccsc2)nc1C,-62.98,8.051,15.29